Earlier results, collected in patent US20010039006A1, “Toxicity typing using embryoid bodies” (priority 1998, published 2001).

Conditions: Table 1

O=C(O)c1cn(C2CC2)c2cc(N3CCNCC3)c(F)cc2c1=O [ciprofloxacin]
TOXICITIES LIVER: ntc
